{"source": "patent US7622447B2", "about": "“Use of glutathione synthesis stimulating compounds in reducing insulin resistance” (DiaMedica Inc., priority 2002, dated 2009)", "origin": "cited, not measured here", "system": "cats", "settings": "arterial-venous glucose response to bolus insulin after atropine; cited from earlier work", "data": [{"smiles": "CN1[C@@H]2CC[C@H]1C[C@@H](OC(=O)C(CO)c1ccccc1)C2", "note": "(stereo partly shown) [atropine]", "values": [{"measurement": "glucose uptake across the hindlimbs (skeletal muscle)", "result": "decreased"}]}]}
